Test results as given in PubChem BioAssay AID248 (DTP/NCI, 2004).
The list is a part of this screen's results and no random one: it is rich in T/C values a quarter to a half above the control, in often repeated tests (any T/C) and in doses without a T/C. Other doses and runs of a compound stand elsewhere. T/C: endpoint of the treated group in % of that of the vehicle group. Some entries give survivors of the animals treated and no T/C: the source holds a T/C of zero for them, seemingly a mark for toxic or unscored doses. Some doses without a T/C left all or most animals alive at the check, yet need not have been tolerated: survival well below the control is almost never listed, so the zero probably covers shortened survival too. Survivors were counted at the toxicity check, usually on the fifth day, unless a day is given; later deaths do not show. Schedule codes are those of the source, read here as Q, the interval in days (D) or hours (H), X, the number of doses. Some schedule codes hold Z or #, which are not explained here. For survival time, this PubChem deposit counts one and a half times the control or more as active, and values a quarter to a half above the control carry no call in these data; other NCI protocols may use other cut-offs. Some T/C values are followed by the survivors on the day toxicity was checked, most often the fifth; where none is given, no animal had died by that day. Some doses were run more than once; the values are given in rising order.

Tested on: L1210 leukemia ip in BDF1 mice, survival T/C
Assay: NCI In Vivo Anticancer Drug Screen. Data for tumor model L1210 Leukemia (intraperitoneal) in B6D2F1 (BDF1) mice
Settings: T/C endpoint: mean survival time, higher T/C = longer survival
[1] = dose: 120.0 mg/kg/injection, schedule: Q01DX Z (ip), vehicle: carboxymethylcellulose (CMC)
[2] = dose: 400.0 mg/kg/injection, schedule: Q01DX001 (ip), vehicle: Klucel (hydroxypropylcellulose) (HPC)
[3] = dose: 400.0 mg/kg/injection, schedule: Q01DX001 (ip), vehicle: saline
[4] = dose: 100.0 mg/kg/injection, schedule: Q01DX009 (ip), vehicle: saline with Tween-80
[5] = dose: 200.0 mg/kg/injection, schedule: Q01DX009 (ip), vehicle: saline with Tween-80
[6] = dose: 400.0 mg/kg/injection, schedule: Q01DX009 (ip), vehicle: saline with Tween-80
[7] = dose: 100.0 mg/kg/injection, schedule: Q01DX001 (ip), vehicle: Klucel (hydroxypropylcellulose) (HPC)

SMILES: C[N+](C)(C)c1ncnc2nc[nH]c12
- T/C (dose: 11.25 mg/kg/injection, schedule: Q01DX Z (ip), vehicle: saline): 127 % of control
- T/C (dose: 15.0 mg/kg/injection, schedule: Q01DX009 (ip), vehicle: saline): 95, 104, 106, 109 % of control
- T/C (dose: 30.0 mg/kg/injection, schedule: Q01DX009 (ip), vehicle: saline): 90, 92, 113, 117 % of control
- T/C (dose: 60.0 mg/kg/injection, schedule: Q01DX009 (ip), vehicle: saline): 102, 113 [5 of 6 alive], 118, 122 % of control
- T/C (dose: 62.0 mg/kg/injection, schedule: Q01DX009 (ip), vehicle: saline): 129 % of control
- T/C (dose: 80.0 mg/kg/injection, schedule: Q01DX015 (ip), vehicle: saline): 137 % of control
- T/C (dose: 90.0 mg/kg/injection, schedule: Q01DX Z (ip), vehicle: saline): 149 % of control
- T/C (dose: 120.0 mg/kg/injection, schedule: Q01DX009 (ip), vehicle: saline): 100, 108, 109 [5 of 6 alive], 132 % of control
- T/C (dose: 120.0 mg/kg/injection, schedule: Q01DX015 (ip), vehicle: saline): 141 % of control
- T/C (dose: 125.0 mg/kg/injection, schedule: Q01DX009 (ip), vehicle: saline): 132 % of control
- T/C (dose: 125.0 mg/kg/injection, schedule: Q01DX009 (oral), vehicle: saline): 135 % of control
- T/C (dose: 180.0 mg/kg/injection, schedule: Q01DX015 (ip), vehicle: saline): 148 % of control
- T/C (dose: 180.0 mg/kg/injection, schedule: Q01DX Z (ip), vehicle: carboxymethylcellulose (CMC)): 128 % of control [6 of 7 alive]
- T/C (dose: 180.0 mg/kg/injection, schedule: Q01DX Z (ip), vehicle: saline): 137 % of control
- T/C (dose: 200.0 mg/kg/injection, schedule: Q## X024 (ip), vehicle: saline): 125 % of control
- T/C (dose: 250.0 mg/kg/injection, schedule: Q01DX005 (ip), vehicle: saline): 132 % of control [7 of 10 alive]
- survivor count (dose: 250.0 mg/kg/injection, schedule: Q01DX009 (ip), vehicle: saline): 5 of 10
- T/C (dose: 250.0 mg/kg/injection, schedule: Q01DX009 (oral), vehicle: saline): 134 % of control
- survivor count (dose: 270.0 mg/kg/injection, schedule: Q01DX Z (ip), vehicle: carboxymethylcellulose (CMC)): 2 of 6
- T/C (dose: 400.0 mg/kg/injection, schedule: Q## X024 (ip), vehicle: saline): 143 % of control [9 of 10 alive]
- survivor count (dose: 405.0 mg/kg/injection, schedule: Q01DX015 (ip), vehicle: saline): 10 of 10
- survivor count (dose: 405.0 mg/kg/injection, schedule: Q01DX Z (ip), vehicle: carboxymethylcellulose (CMC)): 0 of 6
- survivor count (dose: 500.0 mg/kg/injection, schedule: Q01DX001 (ip), vehicle: saline): 0 of 10
- survivor count (dose: 500.0 mg/kg/injection, schedule: Q01DX001 (sc), vehicle: saline): 5 of 10
- T/C (dose: 500.0 mg/kg/injection, schedule: Q01DX009 (oral), vehicle: saline): 143 % of control
- survivor count (dose: 500.0 mg/kg/injection, schedule: Q01DX009 (sc), vehicle: saline): 0 of 10
- survivor count (dose: 500.0 mg/kg/injection, schedule: Q## X003 (ip), vehicle: saline): 0 of 9
- survivor count (dose: 605.0 mg/kg/injection, schedule: Q01DX Z (ip), vehicle: carboxymethylcellulose (CMC)): 0 of 6
- T/C (dose: 800.0 mg/kg/injection, schedule: Q## X008 (ip), vehicle: saline): 146 % of control
- survivor count (dose: 1000.0 mg/kg/injection, schedule: Q01DX001 (ip), vehicle: saline): 0 of 10
- survivor count (dose: 1000.0 mg/kg/injection, schedule: Q01DX001 (sc), vehicle: saline): 0 of 10
- survivor count (dose: 1000.0 mg/kg/injection, schedule: Q## X003 (ip), vehicle: saline): 0 of 10

SMILES: c1ccc(-c2c3ccccc3c(-c3ccccc3)c3c2ccc2ccccc23)cc1
- survivor count (dose: 100.0 mg/kg/injection, schedule: Q01DX009 (ip), vehicle: Klucel (hydroxypropylcellulose) (HPC)): 3 of 3

SMILES: C1CC[C@@H]2NCCC[C@H]2C1
- survivor count (dose: 400.0 mg/kg/injection, schedule: Q01DX001 (ip), vehicle: carboxymethylcellulose (CMC)): 0 of 4

SMILES: C/C(=N/N=C(N)N)c1ccc(Cl)cc1
- survivor count (dose: 60.0 mg/kg/injection, schedule: Q01DX Z (ip), vehicle: carboxymethylcellulose (CMC)): 0 of 6
- survivor count [1]: 0 of 6
- survivor count (dose: 120.0 mg/kg/injection, schedule: Q01DX Z (oral), vehicle: carboxymethylcellulose (CMC)): 4 of 6

SMILES: CCCCN1CC1CC (configuration not stated)
- survivor count (dose: 200.0 mg/kg/injection, schedule: Q01DX001 (ip), vehicle: Klucel (hydroxypropylcellulose) (HPC)): 0 of 6
- survivor count [2]: 0 of 6

SMILES: Cc1nc(Cl)c(C#N)c(C)c1[N+](=O)[O-]
- survivor count (dose: 400.0 mg/kg/injection, schedule: Q04DX003 (ip), vehicle: saline): 1 of 6

SMILES: N#Cc1cn(-c2cccc(Cl)c2)c2ncccc12
- survivor count (dose: 100.0 mg/kg/injection, schedule: Q01DX001 (ip), vehicle: saline with Tween-80): 3 of 3
- survivor count (dose: 100.0 mg/kg/injection, schedule: Q01DX001 (ip), vehicle: saline): 3 of 3
- survivor count (dose: 200.0 mg/kg/injection, schedule: Q01DX001 (ip), vehicle: saline with Tween-80): 3 of 3
- survivor count (dose: 400.0 mg/kg/injection, schedule: Q01DX001 (ip), vehicle: saline with Tween-80): 3 of 3

SMILES: CN=C(c1ccc(NC(=O)c2ccc(C(=O)Nc3ccc(C(=NC)N4CCOCC4)cc3)c(Cl)c2)cc1)N1CCOCC1
- survivor count [1]: 0 of 6

SMILES: S=C(S)N1CCOCC1
- survivor count [3]: 3 of 6

SMILES: Nc1nc(N)nc(-c2ccncc2)n1
- survivor count [4]: 0 of 3
- survivor count [5]: 0 of 3

SMILES: O=C(O)C1Cc2nc[nH]c2CN1CO (configuration not stated)
- T/C (dose: 50.0 mg/kg/injection, schedule: Q01DX009 (ip), vehicle: saline with Tween-80): 141 % of control
- survivor count [5]: 4 of 6
- survivor count [6]: 3 of 6

SMILES: O=P(O)(N(CCCl)CCCl)N1CCN(P(=O)(O)N(CCCl)CCCl)CC1
- T/C (dose: 100.0 mg/kg/injection, schedule: Q01DX015 (ip), vehicle: saline): 147 % of control
- T/C (dose: 300.0 mg/kg/injection, schedule: Q01DX015 (ip), vehicle: saline): 137 % of control

SMILES: Oc1ccc2ccccc2c1CNc1ccccc1
- survivor count (dose: 400.0 mg/kg/injection, schedule: Q04DX003 (ip), vehicle: other): 0 of 3

SMILES: Cc1ccc(COP(=O)(c2ccccc2)c2ccccc2)cc1
- T/C [7]: 133 % of control [5 of 6 alive]
- survivor count [2]: 6 of 6

SMILES: O=NC1C(Cl)C2CC1C1C=CCC12 (configuration not stated)
- survivor count [5]: 0 of 6
- survivor count [6]: 0 of 6

SMILES: CCCCCCCC(=O)N1CCCCC1CC (configuration not stated)
- survivor count (dose: 400.0 mg/kg/injection, schedule: Q04DX002 (ip), vehicle: saline with Tween-80): 2 of 3

SMILES: CN(C)N=Nc1cccnc1
- T/C (dose: 38.0 mg/kg/injection, schedule: Q01DX009 (ip), vehicle: saline): 141 % of control

SMILES: CS(=O)(=O)c1nc(Cl)nc(C(Cl)(Cl)Cl)c1Cl
- survivor count [4]: 0 of 6
- survivor count [5]: 0 of 6
- survivor count [6]: 0 of 6

SMILES: c1ccc2n[se]nc2c1
- survivor count (dose: 50.0 mg/kg/injection, schedule: Q04DX003 (ip), vehicle: saline): 0 of 6

SMILES: O=S1(=O)CC2(C1)OCCO2
- survivor count (dose: 400.0 mg/kg/injection, schedule: Q04DX002 (ip), vehicle: Klucel (hydroxypropylcellulose) (HPC)): 0 of 3

SMILES: CCSc1ncnc2nc(C)[nH]c12
- survivor count [3]: 3 of 6

SMILES: CCCCn1c(C)nc2c(N)cc(C(F)(F)F)cc21
- T/C [7]: 130 % of control

SMILES: C(=C/c1ccccc1)/C[P+](c1ccccc1)(c1ccccc1)c1ccccc1
- survivor count (dose: 100.0 mg/kg/injection, schedule: Q04DX003 (ip), vehicle: saline with Tween-80): 0 of 6
- survivor count (dose: 200.0 mg/kg/injection, schedule: Q04DX003 (ip), vehicle: saline with Tween-80): 0 of 6
- survivor count (dose: 400.0 mg/kg/injection, schedule: Q04DX003 (ip), vehicle: saline with Tween-80): 0 of 6

SMILES: CCCCOc1c(OCCCC)c(=O)c1=O
- survivor count [3]: 3 of 6
- survivor count (dose: 600.0 mg/kg/injection, schedule: Q01DX001 (ip), vehicle: saline): 0 of 6
